Reference: publication PMC7140707

T1: His6-Gis1 (yeast (S. cerevisiae)) (UniProt Q03833)
T1 sequence: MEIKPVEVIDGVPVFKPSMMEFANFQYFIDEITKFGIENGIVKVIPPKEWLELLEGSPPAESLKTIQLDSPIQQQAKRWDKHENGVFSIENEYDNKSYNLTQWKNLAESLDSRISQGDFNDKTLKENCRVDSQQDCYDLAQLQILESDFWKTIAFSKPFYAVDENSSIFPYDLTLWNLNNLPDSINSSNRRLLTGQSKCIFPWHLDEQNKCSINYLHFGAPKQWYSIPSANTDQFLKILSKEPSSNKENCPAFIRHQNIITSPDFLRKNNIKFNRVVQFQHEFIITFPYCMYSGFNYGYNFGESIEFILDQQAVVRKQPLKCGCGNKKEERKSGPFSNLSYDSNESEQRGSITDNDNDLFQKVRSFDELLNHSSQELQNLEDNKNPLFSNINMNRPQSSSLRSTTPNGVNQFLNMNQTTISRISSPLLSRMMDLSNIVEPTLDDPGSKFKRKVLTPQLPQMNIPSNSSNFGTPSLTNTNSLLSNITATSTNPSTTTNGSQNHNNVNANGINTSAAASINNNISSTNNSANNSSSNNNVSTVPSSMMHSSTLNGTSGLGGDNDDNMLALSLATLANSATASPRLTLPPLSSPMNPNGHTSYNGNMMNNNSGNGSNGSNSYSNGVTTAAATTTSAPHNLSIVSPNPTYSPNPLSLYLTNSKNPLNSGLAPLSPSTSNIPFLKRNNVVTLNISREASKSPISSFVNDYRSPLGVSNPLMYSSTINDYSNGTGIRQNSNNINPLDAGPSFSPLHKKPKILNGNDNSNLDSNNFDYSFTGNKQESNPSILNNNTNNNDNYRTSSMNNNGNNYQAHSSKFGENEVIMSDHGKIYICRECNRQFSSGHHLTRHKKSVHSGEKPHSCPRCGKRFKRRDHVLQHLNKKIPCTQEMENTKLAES

B1: SRO9 (protein, UniProt P25567 1-434)
chain: MSAETAAANTATAPVPEVQEQESSKSKQVNLTPAPLPTSSPWKLAPTEIPVSTISIEDLDATRKKKNRTPTPKSSTATKWVPIKASITVSGTKRSGSKNGASNGNSNKSKNNKTAASSTSSSNANRKKKHHQHNAKKQQQMKKDGFESAVGEEDSKDATSQENGQSTQQQQPPHHRNHHHSHHHNSNGPQRRKFHNSNNAGMPQNQGFPPQFKPYQGRNARNNNNNRSKYHNHFHHNQQHPQQPMVKLQQQFYPVQPVLMAINNIARQIEYYFSEENLTVDNYLRSKLSKDGFAPLSLISKFYRVVNMSFGGDTNLILAALREIVANEAATVNVAEGTLAAKEGDNVTGEAKEPSPLDKYFVRSKSWSNWLPETFETEINIEKELVGDALDQFMISLPPVPQQEEESSTELASQEQETKEDSAPVAAGESESSL
B2: SNF1 (protein, UniProt P06782 1-633)
chain: MSSNNNTNTAPANANSSHHHHHHHHHHHHHGHGGSNSTLNNPKSSLADGAHIGNYQIVKTLGEGSFGKVKLAYHTTTGQKVALKIINKKVLAKSDMQGRIEREISYLRLLRHPHIIKLYDVIKSKDEIIMVIEYAGNELFDYIVQRDKMSEQEARRFFQQIISAVEYCHRHKIVHRDLKPENLLLDEHLNVKIADFGLSNIMTDGNFLKTSCGSPNYAAPEVISGKLYAGPEVDVWSCGVILYVMLCRRLPFDDESIPVLFKNISNGVYTLPKFLSPGAAGLIKRMLIVNPLNRISIHEIMQDDWFKVDLPEYLLPPDLKPHPEEENENNDSKKDGSSPDNDEIDDNLVNILSSTMGYEKDEIYESLESSEDTPAFNEIRDAYMLIKENKSLIKDMKANKSVSDELDTFLSQSPPTFQQQSKSHQKSQVDHETAKQHARRMASAITQQRTYHQSPFMDQYKEEDSTVSILPTSLPQIHRANMLAQGSPAASKISPLVTKKSKTRWHFGIRSRSYPLDVMGEIYIALKNLGAEWAKPSEEDLWTIKLRWKYDIGNKTNTNEKIPDLMKMVIQLFQIETNNYLVDFKFDGWESSYGDDTTVSNISEDEMSTFSAYPFLHLTTKLIMELAVNSQSN
B3: UGP1 (protein, UniProt P32861 1-499)
chain: MSTKKHTKTHSTYAFESNTNSVAASQMRNALNKLADSSKLDDAARAKFENELDSFFTLFRRYLVEKSSRTTLEWDKIKSPNPDEVVKYEIISQQPENVSNLSKLAVLKLNGGLGTSMGCVGPKSVIEVREGNTFLDLSVRQIEYLNRQYDSDVPLLLMNSFNTDKDTEHLIKKYSANRIRIRSFNQSRFPRVYKDSLLPVPTEYDSPLDAWYPPGHGDLFESLHVSGELDALIAQGREILFVSNGDNLGATVDLKILNHMIETGAEYIMELTDKTRADVKGGTLISYDGQVRLLEVAQVPKEHIDEFKNIRKFTNFNTNNLWINLKAVKRLIESSNLEMEIIPNQKTITRDGHEINVLQLETACGAAIRHFDGAHGVVVPRSRFLPVKTCSDLLLVKSDLFRLEHGSLKLDPSRFGPNPLIKLGSHFKKVSGFNARIPHIPKIVELDHLTITGNVFLGKDVTLRGTVIIVCSDGHKIDIPNGSILENVVVTGNLQILEH
B4: SOF1 (protein, UniProt P33750 1-489)
chain: MKIKTIKRSADDYVPVKSTQESQMPRNLNPELHPFERAREYTKALNATKLERMFAKPFVGQLGYGHRDGVYAIAKNYGSLNKLATGSADGVIKYWNMSTREEFVSFKAHYGLVTGLCVTQPRFHDKKPDLKSQNFMLSCSDDKTVKLWSINVDDYSNKNSSDNDSVTNEEGLIRTFDGESAFQGIDSHRENSTFATGGAKIHLWDVNRLKPVSDLSWGADNITSLKFNQNETDILASTGSDNSIVLYDLRTNSPTQKIVQTMRTNAICWNPMEAFNFVTANEDHNAYYYDMRNLSRSLNVFKDHVSAVMDVDFSPTGDEIVTGSYDKSIRIYKTNHGHSREIYHTKRMQHVFQVKYSMDSKYIISGSDDGNVRLWRSKAWERSNVKTTREKNKLEYDEKLKERFRHMPEIKRISRHRHVPQVIKKAQEIKNIELSSIKRREANERRTRKDMPYISERKKQIVGTVHKYEDSGRDRKRRKEDDKRDTQEK
B5: ESS1 (protein, UniProt P22696 1-170)
chain: MPSDVASRTGLPTPWTVRYSKSKKREYFFNPETKHSQWEEPEGTNKDQLHKHLRDHPVRVRCLHILIKHKDSRRPASHRSENITISKQDATDELKTLITRLDDDSKTNSFEALAKERSDCSSYKRGGDLGWFGRGEMQPSFEDAAFQLKVGEVSDIVESGSGVHVIKRVG
B6: WHI2 (protein, UniProt P12611 1-486)
chain: MDDIITQVSPDNAESAPILQEQQQQQNSQYEGNEEDYGDSLIHLNIQENHYFITRDQLMSLPESLLLCLFPSGVFLDRCGQVITNLTRDDEVYIVNFPPDCFEYIMEIYTKAHDDLYNHPVEKFFDRPSSSFVSNAKGFFGLSSNNSISSNNEQDILHQKPAIIVLREDLDYYCVPQEEFQFDSTNEENNEDLLRHFMAQVKMAAGSYLTSKTSIFQGLYSSNRLKQQQQQQKIEKGSNSSSNTKSTSKKLGPAEQHLMDMLCSSGFTKETCWGNRTQETGKTVISSLSLCRLANETTEGFRQKFNEAKAKWEAEHKPSQDNFITPMQSNISINSLSASKSNSTISTARNLTSGSTAPATARDKRKSRLSKLADNVRSHSSSRHSSQTRSKPPELPKLYDLVPKPNINAKLLLFWRKPARKCWWGEEDIELEVEVFGSWKDESKKIIELILPTNVDPEAELHKIIVPVRLHIRRVWTLELSVIGVQ
B7: YGR237C (protein, UniProt P50089 1-785)
chain: MSSAKTFTKHISFDDLAPSLIDDQATIIKNDSHHVGLNNHFLHIPPQFNPVYKNTLTGSHGSNDLATDESLDSPEDEEASSPLQLGTPTSTTSGVPHFYTQVFSPAAHDPSKSYLRSPSVERSRSESPMFRSRRRTSVRLPPPPKVSVLKKSRKAADEQGPIDDIDIGDLDFELERKMTKMTERNTQKNSGSRKGYTQAAFANLNEVEDRIETKSMVDLSESENMESSKKRSKSFAGMTDEELAKLEEFYISKGRSNKTKIDQFDFGEQVPVYLNTTESKTDSSNVTDPLAAIYPSRPTIVHNAISMTIDHPDYENYISNTKEKLNCKDKDDDVDLRVVSCYISGRRYTWSSVDWYVENLTRNGDHLVIITTIPEFEAKIDTLAYKEKRRHRLERMTSNTSESMTTASHSLIGPDLSSPLSTGIRIEAIHNEAKQTCSDILNYYARRLATKIVRISIEMVKENSTRSAIISATSLYRPSLQVISTVSANIQIKFRNGKVKLPFFLMKHFAMPAFVVPFEFIKPELLIKPRVDKDEQDNSDDLKTEVRKKERLQWLSALIRRTLENPFTKHKVVDSDDEESDSDESVTSVNEYFPISPEKKEEMEFFDKMGYVRPKPSRQVLLDDNTLMKYDSSGRKLTPIESRNSRRSSKRSSRIQFNNNGIYKVKSMVDDIYNHETASTPHIKTALKWDNEDPKMKFTSHPMRKTKSAGLSPRTSSTSSSSGQRKAHHHHHHHNHVSRTKTTESTKSGNSKKDSSSSSTNDHQFKRSEKKKKSKFGSIFKKVFG
B8: VTS1 (protein, UniProt Q08831 1-523)
chain: MKHPYEEFPTGSKSPYNMSRGAHPGAVLLSPQSSAINKNNPGSNSGNNQGNSSVTANVLSPQSHSMSLNDMLDQQSFMLDTAGTRAQPLQQQQQQQQQQQQASLPSLNIQTVSSTAAGSAIVSPMMQSPKALQSTLSSTSMYLDSFQRSPNNILGIPSQSGSIPLPQSRQSQQQSQSQKNDPNMGTNFSQDINQLCSWISMLNSSQQNTVMDNILSILNDDVLKYTKLKIETLTNTPFISPPLPAIASPIPNRDDTQILNIDSVFSSSPITNDPENTDNLLYQNWSPQPHSIPISQPIYDNITDASQRSKSAEPHVNSSPNLIPVQKQFNNGNSTKYKKLPSENPNYLSHSLSSSHSFFQPKKRSNMGNEYNSHHHHSLHHPLHNTTSYFSNTSRPSGTDLNKSNQNVFNNTITHPNAGPTSATSTSTSSNGNTPLSSNSSMNPKSLTDPKLLKNIPMWLKSLRLHKYSDALSGTPWIELIYLDDETLEKKGVLALGARRKLLKAFGIVIDYKERDLIDRSAY

These binders were tested against T1, His6-Gis1 (yeast (S. cerevisiae)) (assay: affinity purification with mass spectrometry; His6-Gis1 pre-bound to a Ni Sepharose 6 Fast Flow column; crude yeast extract (Δgis1 cells grown in air or under hypoxia, Δgis1Δhem1 cells at intermediate or high ALA) loaded, 4 °C, 2 h; eluted complexes separated by SDS-PAGE, bands excised, MS; only the target purified).

binding, binds:
B1
B2
B3
B4
B5
B6
B7
B8

These are yes or no findings as the source states them, for the method shown. Binding seen in cells or lysates may run through a third protein. A yes stands for co-enrichment or nearness to the bait. Other partners may have been found. Where a sequence is shown, tags or fusion partners need not be part of it.
